# Some of the results follow.
# B1: Mermaid2 (Stilbonema majum) (protein)
# chain: MGSSHHHHHHSSGLVPRGSHMAASGWLRSPQGTVVKLYRRSLSWSKADEFCKDVDGRLVVDRTADMHLFLIKNVLKEKKSRVWVGLRRTAPHSRTWIWSDGTRQNEDDLNTNLWLRDEPNDAAGEEECALFMYSPWEKAWGLNDYLCRGGCRSYQFICEKGIR
# Columns and labels:
# Assay in all cases: glycan array binding signal (z-score within array); higher = stronger binding
# Details in all cases: glycan notation: IUPAC condensed, linker removed
# [1] = biological target: Neu5Ac(a2-8)Neu5Ac
# How it was run: (§1)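 From the Consortium for Functional Glycomics database, 3228 arrays were curated, keeping only those whose protein sequence was available. Binding is given as a within-array Z-score averaged across arrays sharing a protein sequence and across linkers. Negative Z-scores can be read as non-binding.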
# [2] = biological target: Neu5Ac(a2-8)Neu5Ac(a2-3)Gal(b1-3)GalNAc(b1-4)[Neu5Ac(a2-3)]Gal(b1-4)Glc
# How it was run: as §1
# [3] = biological target: Neu5Ac(a2-8)Neu5Ac(a2-3)Gal(b1-3)GalNAc(b1-4)[Neu5Ac(a2-8)Neu5Ac(a2-3)]Gal(b1-4)Glc
# How it was run: as §1
# [4] = biological target: Neu5Ac(a2-8)Neu5Ac(a2-3)Gal(b1-4)Glc
# How it was run: as §1
# [5] = biological target: Neu5Ac(a2-8)Neu5Ac(a2-3)Gal(b1-4)GlcNAc
# How it was run: as §1
# [6] = biological target: Neu5Ac(a2-8)Neu5Ac(a2-3)[Gal(b1-3)GalNAc(b1-4)]Gal(b1-4)Glc
# How it was run: as §1
# [7] = biological target: Neu5Ac(a2-8)Neu5Ac(a2-3)[GalNAc(b1-4)]Gal(b1-4)Glc
# How it was run: as §1
# [8] = biological target: Neu5Ac(a2-8)Neu5Ac(a2-8)Neu5Ac
# How it was run: as §1
# [9] = biological target: Neu5Ac(a2-8)Neu5Ac(a2-8)Neu5Ac(a2-3)Gal(b1-4)Glc
# How it was run: as §1
# [10] = biological target: Neu5Ac(a2-8)Neu5Ac(a2-8)Neu5Ac(a2-3)[Gal(b1-3)GalNAc(b1-4)]Gal(b1-4)Glc
# How it was run: as §1
# [11] = biological target: Neu5Ac(a2-8)Neu5Ac(a2-8)Neu5Ac(a2-3)[GalNAc(b1-4)]Gal(b1-4)Glc
# How it was run: as §1
# [12] = biological target: Neu5Ac(a2-8)Neu5Ac(a2-8)Neu5Ac(a2-8)Neu5Ac(a2-3)[GalNAc(b1-4)]Gal(b1-4)Glc
# How it was run: as §1
# [13] = biological target: Neu5Ac(a2-8)Neu5Gc(a2-3)Gal(b1-4)GlcNAc
# How it was run: as §1
# [14] = biological target: Neu5Ac(b2-6)Gal(b1-4)GlcNAc
# How it was run: as §1
# [15] = biological target: Neu5Ac(b2-6)GalNAc
# How it was run: as §1
# [16] = biological target: Neu5Ac9Ac(a2-3)Gal(b1-3)GlcNAc
# How it was run: as §1
# [17] = biological target: Neu5Ac9Ac(a2-3)Gal(b1-4)GlcNAc
# How it was run: as §1
# [18] = biological target: Neu5Ac9Ac(a2-6)Gal(b1-4)GlcNAc
# How it was run: as §1
# [19] = biological target: Neu5Gc(a2-3)Gal(b1-3)GlcNAc
# How it was run: as §1
# [20] = biological target: Neu5Gc(a2-3)Gal(b1-3)[Fuc(a1-4)]GlcNAc
# How it was run: as §1
# [21] = biological target: Neu5Gc(a2-3)Gal(b1-4)Glc
# How it was run: as §1
# [22] = biological target: Neu5Gc(a2-3)Gal(b1-4)GlcNAc
# How it was run: as §1
# [23] = biological target: Neu5Gc(a2-3)Gal(b1-4)GlcNAc(b1-3)Gal(b1-4)GlcNAc(b1-2)Man(a1-3)[Neu5Gc(a2-3)Gal(b1-4)GlcNAc(b1-3)Gal(b1-4)GlcNAc(b1-2)Man(a1-6)]Man(b1-4)GlcNAc(b1-4)GlcNAc
# How it was run: as §1
# [24] = biological target: Neu5Gc(a2-3)Gal(b1-4)[Fuc(a1-3)]GlcNAc
# How it was run: as §1
# [25] = biological target: Neu5Gc(a2-6)Gal(b1-4)GlcNAc
# How it was run: as §1
# [26] = biological target: Neu5Gc(a2-6)GalNAc
# How it was run: as §1
# [27] = biological target: Neu5Gc(a2-8)Neu5Ac(a2-3)Gal(b1-4)GlcNAc
# How it was run: as §1
# [28] = biological target: Neu5Gc(a2-8)Neu5Gc(a2-3)Gal(b1-4)GlcNAc
# How it was run: as §1
# [29] = biological target: Neu5Gc(a2-8)Neu5Gc(a2-3)Gal(b1-4)GlcNAc(b1-3)Gal(b1-4)GlcNAc
# How it was run: as §1
# [30] = biological target: Neu5Gc(a2-8)Neu5Gc(a2-6)Gal(b1-4)GlcNAc
# How it was run: as §1
# [31] = biological target: Neu5Gc(b2-6)Gal(b1-4)GlcNAc
# How it was run: as §1
binder,measurement,setting,value
B1,glycan array binding signal (z-score),[1],-0.705
same,glycan array binding signal (z-score),[2],-0.435
same,glycan array binding signal (z-score),[3],0.391
same,glycan array binding signal (z-score),[4],-0.787
same,glycan array binding signal (z-score),[5],-0.695
same,glycan array binding signal (z-score),[6],-0.406
same,glycan array binding signal (z-score),[7],-0.809
same,glycan array binding signal (z-score),[8],-0.557
same,glycan array binding signal (z-score),[9],-0.52
same,glycan array binding signal (z-score),[10],0.148
same,glycan array binding signal (z-score),[11],1.01
same,glycan array binding signal (z-score),[12],0.205
same,glycan array binding signal (z-score),[13],-0.795
same,glycan array binding signal (z-score),[14],-0.717
same,glycan array binding signal (z-score),[15],-0.52
same,glycan array binding signal (z-score),[16],-0.562
same,glycan array binding signal (z-score),[17],-0.505
same,glycan array binding signal (z-score),[18],2.34
same,glycan array binding signal (z-score),[19],-0.34
same,glycan array binding signal (z-score),[20],0.598
same,glycan array binding signal (z-score),[21],0.179
same,glycan array binding signal (z-score),[22],-0.794
same,glycan array binding signal (z-score),[23],-0.883
same,glycan array binding signal (z-score),[24],3.71
same,glycan array binding signal (z-score),[25],0.351
same,glycan array binding signal (z-score),[26],-0.111
same,glycan array binding signal (z-score),[27],-0.477
same,glycan array binding signal (z-score),[28],-0.635
same,glycan array binding signal (z-score),[29],-0.347
same,glycan array binding signal (z-score),[30],-0.365
same,glycan array binding signal (z-score),[31],-0.591

# Rewritten with tabs: part of the list above
binder	measurement	setting	value
B1	glycan array binding signal (z-score)	[30]	-0.365
same	glycan array binding signal (z-score)	[31]	-0.591
